According to patent US10538561B2 (priority 2015, dated 2020):
No end group written: not given here.

What was measured:
[1] = Maximum feasible dose (MFD); design: species or system Balb/c mouse
[2] = peptide synthesis; settings: whole synthesis, mobile phase B 0.1% TFA in ACN, run time 30 min

H-WVQRVVEKFLK-OH [IS181, H-Trp-Val-Gln-Arg-Val-Val-Glu-Lys-Phe-Leu-Lys-OH]
MFD in Balb/c mouse ([1]; 0.9% NaCl (for IV)): 100 mg/kg
MFD in Balb/c mouse ([1]; 10% v/v Propylene glycol in 0.9% NaCl, i.m.): 50 mg/kg (i.m.)
MFD in Balb/c mouse ([1]; 10% v/v Propylene glycol in 0.9% NaCl, sc): 100 mg/kg (sc)

WVQRVVEKFLK
final HPLC purity [2]: Purity NLT 98.0%
